These are yes or no findings as the source states them, for the method shown. Binding seen in cells or lysates may run through a third protein. Some entries that bind do so weakly or less than the wild type.
Molecular target: RXRA protein (retinoid X receptor alpha), endogenous in HEK293 (human (endogenous in HEK293)) (UniProt P19793)
Assay: co-IP; endogenous proteins; 2 mg HEK293 whole cell lysate with antibody covalently bound to agarose beads, overnight at 4 C, washed 3X with 1X lysis buffer; normal rabbit IgG as control; Western blot for VCP

Sequences of proteins named here, by UniProt entry; tags and fusion partners are left off.
UniProt P19793: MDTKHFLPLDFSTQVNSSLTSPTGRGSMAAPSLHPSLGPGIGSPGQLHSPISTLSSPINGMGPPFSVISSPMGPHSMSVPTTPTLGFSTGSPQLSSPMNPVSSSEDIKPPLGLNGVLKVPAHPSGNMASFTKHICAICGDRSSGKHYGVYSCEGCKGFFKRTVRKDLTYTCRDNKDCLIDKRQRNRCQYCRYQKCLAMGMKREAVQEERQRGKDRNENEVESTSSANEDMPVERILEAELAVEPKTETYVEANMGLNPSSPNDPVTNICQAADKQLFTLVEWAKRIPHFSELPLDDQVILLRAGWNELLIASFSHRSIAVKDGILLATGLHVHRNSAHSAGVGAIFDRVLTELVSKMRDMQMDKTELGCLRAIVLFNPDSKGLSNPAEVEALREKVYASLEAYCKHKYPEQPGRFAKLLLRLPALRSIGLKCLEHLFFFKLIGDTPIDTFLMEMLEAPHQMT

- binding: binds
Substance: valosin-containing protein (VCP/p97/Cdc48), endogenous in HEK293 (from UniProt P55072 1-806)
